From the supplement of paper PMC10849652
The other results are listed elsewhere or left out.

Chains of the proteins cited; added tags and fusions are not shown. Lines headed by an entry give the natural chain unless they say otherwise; changes in a name come on top.
UniProt Q14135: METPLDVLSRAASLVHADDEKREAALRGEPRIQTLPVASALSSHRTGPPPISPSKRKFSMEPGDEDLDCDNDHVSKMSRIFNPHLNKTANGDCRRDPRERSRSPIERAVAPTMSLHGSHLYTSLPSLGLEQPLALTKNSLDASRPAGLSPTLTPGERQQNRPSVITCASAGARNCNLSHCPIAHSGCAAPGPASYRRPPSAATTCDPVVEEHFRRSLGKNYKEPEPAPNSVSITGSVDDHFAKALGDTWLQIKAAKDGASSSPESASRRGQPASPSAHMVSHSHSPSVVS
UniProt Q9H7M9, whole entry, looked up: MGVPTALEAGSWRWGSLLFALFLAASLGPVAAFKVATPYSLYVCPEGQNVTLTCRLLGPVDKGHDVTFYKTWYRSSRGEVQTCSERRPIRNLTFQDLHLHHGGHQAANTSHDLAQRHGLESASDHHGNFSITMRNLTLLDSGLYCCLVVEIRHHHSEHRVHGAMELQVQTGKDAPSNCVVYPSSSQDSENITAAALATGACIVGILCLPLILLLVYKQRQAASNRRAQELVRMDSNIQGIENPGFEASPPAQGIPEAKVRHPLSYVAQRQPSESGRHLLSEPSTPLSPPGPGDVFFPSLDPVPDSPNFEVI
UniProt Q96RL7: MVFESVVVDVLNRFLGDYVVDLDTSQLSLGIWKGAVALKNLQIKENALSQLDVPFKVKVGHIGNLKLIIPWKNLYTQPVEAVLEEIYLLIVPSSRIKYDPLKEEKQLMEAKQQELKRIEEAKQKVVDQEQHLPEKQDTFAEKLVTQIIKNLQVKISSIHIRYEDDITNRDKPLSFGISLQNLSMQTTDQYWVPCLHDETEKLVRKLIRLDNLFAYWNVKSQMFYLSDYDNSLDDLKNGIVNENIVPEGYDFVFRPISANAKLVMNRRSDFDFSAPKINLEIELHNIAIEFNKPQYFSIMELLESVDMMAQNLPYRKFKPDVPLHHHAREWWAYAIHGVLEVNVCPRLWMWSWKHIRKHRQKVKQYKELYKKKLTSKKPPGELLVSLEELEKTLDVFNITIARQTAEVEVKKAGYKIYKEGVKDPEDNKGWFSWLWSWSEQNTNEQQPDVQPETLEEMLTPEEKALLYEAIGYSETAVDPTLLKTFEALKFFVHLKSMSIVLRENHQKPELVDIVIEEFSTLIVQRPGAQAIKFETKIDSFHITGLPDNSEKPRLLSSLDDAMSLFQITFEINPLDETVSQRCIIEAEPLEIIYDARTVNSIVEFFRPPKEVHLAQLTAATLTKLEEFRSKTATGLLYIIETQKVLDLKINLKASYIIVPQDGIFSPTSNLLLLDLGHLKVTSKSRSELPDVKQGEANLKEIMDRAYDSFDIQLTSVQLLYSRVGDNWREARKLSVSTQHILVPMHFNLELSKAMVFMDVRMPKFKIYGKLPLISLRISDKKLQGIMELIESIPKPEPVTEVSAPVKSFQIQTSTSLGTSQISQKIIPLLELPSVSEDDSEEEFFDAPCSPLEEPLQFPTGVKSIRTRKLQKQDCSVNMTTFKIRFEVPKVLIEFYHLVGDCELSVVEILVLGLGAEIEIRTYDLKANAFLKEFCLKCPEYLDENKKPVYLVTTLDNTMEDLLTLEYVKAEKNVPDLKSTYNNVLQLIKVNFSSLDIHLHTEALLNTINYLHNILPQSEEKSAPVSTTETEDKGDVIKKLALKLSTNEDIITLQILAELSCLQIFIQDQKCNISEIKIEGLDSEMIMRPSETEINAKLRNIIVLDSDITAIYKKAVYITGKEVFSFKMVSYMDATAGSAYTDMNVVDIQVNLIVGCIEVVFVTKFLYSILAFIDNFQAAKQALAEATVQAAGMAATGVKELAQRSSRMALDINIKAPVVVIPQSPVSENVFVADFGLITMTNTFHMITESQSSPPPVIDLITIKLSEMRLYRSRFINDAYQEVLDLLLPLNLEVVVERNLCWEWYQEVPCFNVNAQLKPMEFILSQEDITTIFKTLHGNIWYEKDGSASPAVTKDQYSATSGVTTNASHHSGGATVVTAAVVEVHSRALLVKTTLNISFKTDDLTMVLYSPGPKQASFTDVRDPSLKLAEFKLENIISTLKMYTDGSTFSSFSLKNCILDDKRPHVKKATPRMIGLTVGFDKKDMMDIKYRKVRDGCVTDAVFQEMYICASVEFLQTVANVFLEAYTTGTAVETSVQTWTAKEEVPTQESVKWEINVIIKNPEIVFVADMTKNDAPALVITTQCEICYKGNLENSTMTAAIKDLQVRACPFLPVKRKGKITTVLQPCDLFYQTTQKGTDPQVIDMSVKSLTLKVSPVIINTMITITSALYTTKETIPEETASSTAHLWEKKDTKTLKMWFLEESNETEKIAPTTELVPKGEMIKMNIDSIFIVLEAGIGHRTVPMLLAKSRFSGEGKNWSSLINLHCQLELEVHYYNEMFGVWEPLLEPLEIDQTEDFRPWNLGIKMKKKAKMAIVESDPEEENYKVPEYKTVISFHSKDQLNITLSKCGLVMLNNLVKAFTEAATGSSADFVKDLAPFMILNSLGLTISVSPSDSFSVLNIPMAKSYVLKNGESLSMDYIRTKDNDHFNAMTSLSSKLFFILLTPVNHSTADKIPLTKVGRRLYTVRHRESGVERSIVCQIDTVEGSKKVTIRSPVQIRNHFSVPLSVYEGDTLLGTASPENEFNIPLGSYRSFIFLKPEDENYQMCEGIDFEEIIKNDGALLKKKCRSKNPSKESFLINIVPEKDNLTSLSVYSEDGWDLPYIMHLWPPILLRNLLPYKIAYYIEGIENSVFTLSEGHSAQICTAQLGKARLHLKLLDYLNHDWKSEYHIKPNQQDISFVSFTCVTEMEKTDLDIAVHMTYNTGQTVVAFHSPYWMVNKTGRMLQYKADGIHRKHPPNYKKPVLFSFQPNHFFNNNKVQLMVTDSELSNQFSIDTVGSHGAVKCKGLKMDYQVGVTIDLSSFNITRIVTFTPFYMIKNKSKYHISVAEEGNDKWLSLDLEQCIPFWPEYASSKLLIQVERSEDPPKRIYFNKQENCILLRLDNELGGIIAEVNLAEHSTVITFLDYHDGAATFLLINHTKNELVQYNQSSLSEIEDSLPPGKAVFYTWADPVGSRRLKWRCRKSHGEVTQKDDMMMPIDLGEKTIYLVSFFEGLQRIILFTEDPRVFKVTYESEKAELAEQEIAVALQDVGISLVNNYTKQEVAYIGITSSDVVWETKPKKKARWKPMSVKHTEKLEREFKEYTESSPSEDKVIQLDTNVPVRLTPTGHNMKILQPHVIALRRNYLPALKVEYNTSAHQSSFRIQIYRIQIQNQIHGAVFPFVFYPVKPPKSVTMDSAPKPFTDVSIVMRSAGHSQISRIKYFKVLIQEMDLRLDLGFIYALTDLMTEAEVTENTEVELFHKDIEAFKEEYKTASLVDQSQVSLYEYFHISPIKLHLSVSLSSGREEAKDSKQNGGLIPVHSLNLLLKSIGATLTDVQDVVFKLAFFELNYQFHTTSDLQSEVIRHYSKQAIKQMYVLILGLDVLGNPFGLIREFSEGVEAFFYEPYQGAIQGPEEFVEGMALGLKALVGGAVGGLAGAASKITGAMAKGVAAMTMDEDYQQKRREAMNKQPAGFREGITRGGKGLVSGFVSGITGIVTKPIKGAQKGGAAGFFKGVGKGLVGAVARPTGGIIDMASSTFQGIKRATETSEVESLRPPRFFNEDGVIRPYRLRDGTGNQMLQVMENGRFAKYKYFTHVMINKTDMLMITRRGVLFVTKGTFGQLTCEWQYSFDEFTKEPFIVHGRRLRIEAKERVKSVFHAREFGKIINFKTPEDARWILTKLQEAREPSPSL
UniProt Q9H267: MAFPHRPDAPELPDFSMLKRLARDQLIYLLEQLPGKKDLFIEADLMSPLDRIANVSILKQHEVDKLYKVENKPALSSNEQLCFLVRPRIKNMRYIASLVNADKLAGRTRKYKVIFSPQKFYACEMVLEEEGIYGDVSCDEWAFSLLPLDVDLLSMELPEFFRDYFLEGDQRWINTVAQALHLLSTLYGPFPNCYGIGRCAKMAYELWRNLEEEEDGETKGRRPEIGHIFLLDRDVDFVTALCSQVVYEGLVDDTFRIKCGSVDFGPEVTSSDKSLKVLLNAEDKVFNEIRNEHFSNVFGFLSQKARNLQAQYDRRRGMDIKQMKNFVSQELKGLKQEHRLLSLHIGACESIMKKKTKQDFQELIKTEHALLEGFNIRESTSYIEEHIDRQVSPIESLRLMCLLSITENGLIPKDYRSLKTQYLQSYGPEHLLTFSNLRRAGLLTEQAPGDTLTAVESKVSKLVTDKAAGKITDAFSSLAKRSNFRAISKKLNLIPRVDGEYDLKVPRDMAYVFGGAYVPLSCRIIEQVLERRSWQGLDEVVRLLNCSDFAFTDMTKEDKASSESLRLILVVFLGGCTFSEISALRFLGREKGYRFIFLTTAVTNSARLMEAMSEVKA
UniProt Q96J92: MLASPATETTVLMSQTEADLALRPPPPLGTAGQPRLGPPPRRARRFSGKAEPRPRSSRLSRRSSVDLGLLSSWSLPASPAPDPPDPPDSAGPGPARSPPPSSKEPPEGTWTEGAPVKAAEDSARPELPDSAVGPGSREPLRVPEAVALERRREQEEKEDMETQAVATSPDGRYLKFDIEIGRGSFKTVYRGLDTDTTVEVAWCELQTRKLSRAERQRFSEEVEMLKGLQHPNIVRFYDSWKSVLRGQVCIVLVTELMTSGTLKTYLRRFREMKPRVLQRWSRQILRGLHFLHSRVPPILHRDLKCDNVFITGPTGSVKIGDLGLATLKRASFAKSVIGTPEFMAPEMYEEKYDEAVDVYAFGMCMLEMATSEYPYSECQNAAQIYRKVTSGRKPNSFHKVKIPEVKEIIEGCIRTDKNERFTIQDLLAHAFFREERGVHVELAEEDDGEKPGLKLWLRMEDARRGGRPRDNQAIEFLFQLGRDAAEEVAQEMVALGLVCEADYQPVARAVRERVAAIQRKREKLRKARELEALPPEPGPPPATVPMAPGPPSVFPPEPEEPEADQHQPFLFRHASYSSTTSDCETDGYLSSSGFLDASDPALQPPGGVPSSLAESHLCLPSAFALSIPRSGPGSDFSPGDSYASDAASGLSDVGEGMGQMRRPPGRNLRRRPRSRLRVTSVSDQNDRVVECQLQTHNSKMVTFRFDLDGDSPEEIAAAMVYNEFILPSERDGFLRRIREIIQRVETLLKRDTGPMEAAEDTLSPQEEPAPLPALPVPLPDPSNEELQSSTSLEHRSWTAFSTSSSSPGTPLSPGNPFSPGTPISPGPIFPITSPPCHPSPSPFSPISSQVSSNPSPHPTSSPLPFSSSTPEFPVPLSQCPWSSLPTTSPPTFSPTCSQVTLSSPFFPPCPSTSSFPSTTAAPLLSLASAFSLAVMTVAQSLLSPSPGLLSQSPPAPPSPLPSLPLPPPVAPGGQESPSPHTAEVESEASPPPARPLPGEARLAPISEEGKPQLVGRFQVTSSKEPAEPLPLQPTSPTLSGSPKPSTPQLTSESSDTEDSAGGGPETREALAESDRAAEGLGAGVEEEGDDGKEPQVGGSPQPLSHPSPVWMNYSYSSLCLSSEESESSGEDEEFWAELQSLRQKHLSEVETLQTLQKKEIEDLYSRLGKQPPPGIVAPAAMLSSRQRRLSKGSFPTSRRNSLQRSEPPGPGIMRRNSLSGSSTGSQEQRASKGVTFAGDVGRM
UniProt Q96EX3: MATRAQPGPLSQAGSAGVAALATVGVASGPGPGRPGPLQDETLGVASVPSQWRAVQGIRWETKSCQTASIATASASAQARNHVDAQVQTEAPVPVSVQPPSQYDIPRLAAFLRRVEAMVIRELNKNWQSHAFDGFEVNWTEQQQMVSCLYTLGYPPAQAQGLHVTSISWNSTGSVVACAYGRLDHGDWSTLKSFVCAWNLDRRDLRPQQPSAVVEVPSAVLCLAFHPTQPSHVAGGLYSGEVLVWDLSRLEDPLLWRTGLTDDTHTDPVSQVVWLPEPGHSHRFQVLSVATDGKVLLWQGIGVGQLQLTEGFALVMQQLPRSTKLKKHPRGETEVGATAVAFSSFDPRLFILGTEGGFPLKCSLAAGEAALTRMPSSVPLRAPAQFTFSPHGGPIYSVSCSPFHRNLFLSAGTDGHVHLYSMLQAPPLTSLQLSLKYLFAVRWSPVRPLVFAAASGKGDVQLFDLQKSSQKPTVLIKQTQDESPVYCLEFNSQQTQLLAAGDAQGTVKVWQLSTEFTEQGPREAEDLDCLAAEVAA
UniProt Q9H9H4: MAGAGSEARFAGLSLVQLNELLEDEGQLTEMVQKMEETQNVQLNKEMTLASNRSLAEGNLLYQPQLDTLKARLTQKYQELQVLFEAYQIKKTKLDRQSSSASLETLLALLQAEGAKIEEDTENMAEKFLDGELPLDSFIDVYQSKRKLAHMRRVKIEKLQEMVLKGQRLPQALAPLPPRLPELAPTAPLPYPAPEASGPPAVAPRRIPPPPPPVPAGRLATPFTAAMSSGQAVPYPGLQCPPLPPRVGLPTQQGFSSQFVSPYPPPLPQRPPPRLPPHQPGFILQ

Columns and labels:
Test in all cases: log2 fold change, soluble protein after heating vs DMSO (PISA); higher = thermal stabilisation; K562 cells, 10 uM, 30 min; active = over 0.2 and 3.5 SD of the protein, either way, in both replicates (recomputed)
[1] = compound: C1=CC=C(C=C1)[C@H](COC2=CC3=C(C=C2)NC(=O)N3)NC(=O)C4=CC=CN(C4=O)CC5=CC(=C(C=C5)F)F
Method in brief: (§1)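 K562 cells at 2×10^6 cells/mL were treated with 10 μM compound for 30 min. Aliquots were heated for 3 min across 48°C-58°C, pooled, and extracted in PBS with 0.5% NP-40 at 4°C; soluble protein was the supernatant after 21,000xg for 90 min. Soluble protein was quantified by TMTpro 16plex LC-MS/MS with channel sums equalised, and reported as log2 fold change in thermal stability against DMSO controls, with values from duplicates.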

[2] = compound: CC1=C2C(=CC=C1)N=C(N(C2=O)C3=CC=CC=C3C)CN4C=NC5=C(N=CN=C54)N
Method in brief: as §1

[3] = compound: Cc1sc2c(c1C)C(c1ccc(Cl)cc1)=N[C@@H](CC(=O)OC(C)(C)C)c1nnc(C)n1-2
Method in brief: as §1

[4] = compound: CC1=C(SC2=C1C(=N[C@H](C3=NN=C(N32)C)CC(=O)N)C4=CC=C(C=C4)Cl)C
Method in brief: as §1

[5] = compound: c1ccc([C@@H]2C[C@H]2NC2CCNCC2)cc1
Method in brief: as §1

Measured: log2 fold change

VGLL4 isoform 4 (UniProt Q14135)
inactive: [1] -0.089 | [2] 0.116 | [3] 0.156

VSIR (UniProt Q9H7M9)
inactive: [1] 0.071 | [4] -0.054 | [2] 0.011 | [5] 0.056

VPS13A isoform 4 (UniProt Q96RL7)
inactive: [3] -0.077

VPS33B (UniProt Q9H267)
inactive: [1] -0.102 | [4] 0.021 | [2] 0.03 | [3] 0.008 | [5] -0.064

WNK4 (UniProt Q96J92)
inactive: [2] 0 | [3] -0.089

WDR34 (UniProt Q96EX3)
inactive: [1] -0.039 | [4] 0.162 | [2] 0.042 | [5] 0.109

VPS37B (UniProt Q9H9H4)
inactive: [1] -0.082 | [2] 0.045 | [3] 0.011
